Consider 35 molecules from PubChem BioAssay AID2685 (National Center for Advancing Translational Sciences (NCATS), 2010).

One may read the AC50 as the concentration giving half of the maximal activity seen. A high value points to activity only at high concentration.

The nature of this assay: qHTS Assay for Lipid Storage Modulators in Drosophila S3 Cells.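 On cell number change: cells counted by Cell Tracker Red CMTPX staining in the red channel.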 To be noted: BODIPY lipid droplet fluorescence, 18-24 h; for cell number change: measured here: cell count max response, cells fed with added oleic acid. Put shortly:
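Drosophila S3 cells got compounds at several concentrations plus oleic acid (400 uM solution). Laser-scanning cytometry with 488 nm excitation read lipid droplets at 500-530 nm and cells at 575-640 nm. Percent activity was relative to 20 uM Triacsin C.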

[1] abbreviates: measured here: lipid fluorescence (Fed channel) AC50, cells fed with added oleic acid.
Where [2] appears, read: measured here: cell number channel AC50, cells fed with added oleic acid.

This is one part of the list. Shown are side measurements of this screen, not its main read-out; they come without a call. Most of these compounds were active or inconclusive in the main read-out, so they are no random draw. The note in brackets gives the kind of curve behind each potency; many fits are weak.

Regarding `Cc1nn(C)cc1/C=N\NC(=O)Cc1ccc([N+](=O)[O-])cc1`, the cell number change was determined as 11.7%. Moreover, the AC50 under setting [1] was 0.731 µM [falling, full curve].

As for `OCCC#Cc1ccc(CN2CCN(Cc3ccsc3)C(CCO)C2)cc1` (stereo not drawn), the cell number change was -15.6%.

Regarding `CCOc1ccc(C2/C(=C(/O)c3ccc(OC)cc3)C(=O)C(=O)N2c2cc(C)on2)cc1OC` (stereo not drawn), the cell number change stood at 11.1%. The AC50 under setting [1] is 0.411 µM [falling, partial curve, poor fit].

Consider `CCCC(=O)N(c1ccc2oc(=O)sc2c1)S(=O)(=O)c1cccs1`, for which the cell number change is -5.91%. The AC50 under setting [1] is 29.1 µM [falling, single point].

`Cc1ccc(CNC(=O)C2CC3Cn4c(nc5cc6ccccc6cc54)C3N2C)o1` (stereo not drawn): the cell number change was found to be 25.3%. Further, the AC50 under setting [1] is 13 µM [rising, partial curve].

In the case of `O=C(CC1C(=O)NCCN1Cc1ccccc1C(F)(F)F)NCCN1CCCCC1=O` (stereo not drawn), the cell number change is -37.5%. In addition, the AC50 under setting [2] is 29.1 µM [falling, single point].

`CC(=O)Nc1cccc(C(=O)Nc2ccccc2N2CCOCC2)c1`: the cell number change came out at 83.7%. Moreover, under setting [2], the AC50 was 5.17 µM [rising, partial curve].

On to `Cc1ccc(Sc2nc(C)c([N+](=O)[O-])c(C)c2C#N)cc1`, for which the cell number change came out at 28.7%. Moreover, under setting [1], the AC50 is 3.66 µM [rising, single point].

Take `O=C(CC1CCCC1)NCCc1cn2ccccc2n1`: the cell number change is -13%. For the same molecule, under setting [2], the AC50 is 1.84 µM [falling, full curve, poor fit]. Also, the AC50 under setting [1] was 29.1 µM [falling, single point].

As for `COc1ccc(C(=O)/C=C/c2cn(CN3CCN(C)CC3)c3ccccc23)cc1`, the cell number change was -146%. Moreover, the AC50 under setting [1] was 0.231 µM [falling, full curve, poor fit].

For the molecule `O=C(O)c1cccc(-c2ccc(/C=N/Nc3nn[nH]n3)o2)c1`, the cell number change was -11.7%. Further, under setting [2], the AC50 is 0.00461 µM [falling, full curve, poor fit]. Further, the AC50 under setting [1] is 4.11 µM [falling, full curve, poor fit].

As to `COc1ccc(NC(=O)c2sc(NC(=O)COc3ccccc3)nc2C)cc1`, the cell number change came to 22.4%.

`COc1ccc(NC(=O)c2cnn(-c3ccccc3)c2C)c(OC)c1`: the cell number change was -11.3%. Besides, under setting [1], the AC50 is 0.58 µM [falling, single point].

`CCOc1ccc(C2/C(=C(/O)c3ccc4c(c3)CC(C)O4)C(=O)C(=O)N2CC2CCCO2)cc1` (stereo not drawn): the cell number change was -19.5%. In addition, the AC50 under setting [1] is 29.1 µM [rising, single point].

Take `COC(=O)[C@H](Cc1ccccc1)NS(=O)(=O)N[C@@H](Cc1ccccc1)C(=O)OC`: the cell number change is -0.245%. Further, under setting [1], the AC50 is 10.3 µM [rising, partial curve].

With `O=C(Nc1ccn(Cc2ccc(Cl)cc2)n1)c1ccc2c(c1)OCO2`, the cell number change came to 86.1%. The AC50 under setting [2] is 18.4 µM [rising, single point].

Take `CC(C)c1ccccc1NC(=O)CNCCc1ccc(C(F)(F)F)cc1`: the cell number change is -34.9%. Moreover, the AC50 under setting [2] is 14.6 µM [falling, single point]. Also, the AC50 under setting [1] was 29.1 µM [falling, single point].

`CNCc1cc2ccc(C)cc2[nH]c1=O`: the cell number change stood at 2.03%.

For the molecule `Cn1c(CCNC(=O)C2CCCCC2)nc2cc(NC(=O)c3cccs3)ccc21`, the cell number change turned out to be 37.2%. Besides, the AC50 under setting [2] is 4.11 µM [rising, full curve, poor fit]. In addition, the AC50 under setting [1] was 0.411 µM [rising, full curve, poor fit].

With `COc1ccc(Cc2nnc(SCc3nc4ccccc4c(=O)[nH]3)n2C)cc1`, the cell number change was -2.7%.

As to `Cc1cc([N+](=O)[O-])ccc1NC(=O)CSc1nccc(=O)[nH]1`, the cell number change stood at 3.05%. Also, under setting [2], the AC50 is 0.146 µM [falling, full curve, poor fit]. Further, under setting [1], the AC50 was 8.2 µM [falling, partial curve].

As for `O=C1C=C(c2ccc3c(c2)OCO3)C[C@@H](c2ccc(Cl)cc2)C1`, the cell number change is -12.6%. In addition, the AC50 under setting [2] was 1.84 µM [falling, partial curve, poor fit]. The AC50 under setting [1] is 0.00461 µM [falling, full curve, poor fit].

`O=C(Nc1ccc(Cl)c(Cl)c1)Nc1ccccc1NS(=O)(=O)c1cccs1`: the cell number change was -13%. For the same molecule, the AC50 under setting [1] is 32.6 µM [falling, single point].

As for `CC1CCc2c(sc3ncn4c(SCC(=O)NCc5ccco5)nnc4c23)C1` (stereo not drawn), the cell number change is 24.1%. For the same molecule, the AC50 under setting [2] was 0.82 µM [rising, full curve, poor fit].

In the case of `O=C(CCN1C(=O)c2ccccc2C1=O)OCN1C(=O)c2ccccc2C1=O`, the cell number change turned out to be 2.13%.

In the case of `O=C1c2ccccc2C(Nc2ccc(F)c(Cl)c2)N1Cc1ccco1` (stereo not drawn), the cell number change came to 11.1%. Further, under setting [1], the concentration at half-maximal activity (AC50) is 5.17 µM [rising, partial curve, poor fit].

Consider `O=C(NCc1ccco1)C1CN(S(=O)(=O)c2ccccc2)CCN1S(=O)(=O)c1ccccc1` (stereo not drawn), for which the cell number change worked out at 1.23%. Moreover, the AC50 under setting [1] was 3.66 µM [rising, single point].

As to `COc1ccc(-c2nc(CN3CCN(c4ncnc5ccccc45)CC3)c(C)o2)c(OC)c1`, the cell number change was -45.2%. For the same molecule, the AC50 under setting [2] was 16.4 µM [falling, partial curve, poor fit]. For the same molecule, under setting [1], the AC50 is 0.103 µM [falling, full curve, poor fit].

Turning to `O=C(Nc1ccccc1Cl)c1cc2ccccc2o/c1=N\O`, the cell number change was -25.3%. In addition, the AC50 under setting [1] was 6.51 µM [falling, single point].

Regarding `O=C(/C=C/c1cccc([N+](=O)[O-])c1)NC(=S)Nc1ccc(CN2CCOCC2)cc1`, the cell number change is -4.98%. In addition, the concentration at half-maximal activity (AC50) under setting [1] is 0.13 µM [falling, full curve, poor fit].

Consider `CCc1nc(N2CCCC2C(=O)O)c2oc3ccccc3c2n1` (stereo not drawn), for which the cell number change is -3.69%. Also, the AC50 under setting [1] is 29.1 µM [falling, partial curve, poor fit].

Regarding `CCOc1ccc2[nH]c(=O)c(CN(Cc3ccco3)Cc3nnnn3Cc3ccccc3)cc2c1`, the cell number change turned out to be 19%. Moreover, the AC50 under setting [1] was 2.31 µM [rising, partial curve].

Consider `C#CCOCCOCCOCCNc1nc(N2CCN(C(=O)CCCCCCCCCCNC(=O)Cn3cc(C[C@@H](C)O)nn3)CC2)nc(N2CCN(C(=O)CCCCCCCCCCNC(=O)Cn3cc(C[C@@H](C)O)nn3)CC2)n1`, for which the cell number change was 97.5%. The AC50 under setting [2] is 29.1 µM [rising, single point]. In addition, under setting [1], the AC50 is 14.6 µM [falling, partial curve, poor fit].

With `N#Cc1c(N)nc(SCC(=O)OCc2ccccc2)c(C#N)c1-c1ccco1`, the cell number change is 92.8%. In addition, under setting [2], the AC50 was 13 µM [rising, partial curve].

As to `O=C(CCc1nnc(COc2ccccc2)o1)NCc1ccccc1C(F)(F)F`, the cell number change is -25.6%. Besides, the AC50 under setting [1] was 20.6 µM [falling, single point].
